## Library screen at single concentrations

Protein sequences, listed by entry. Tags and fused reporters are not part of them.
UniProt P9WPC5, whole entry: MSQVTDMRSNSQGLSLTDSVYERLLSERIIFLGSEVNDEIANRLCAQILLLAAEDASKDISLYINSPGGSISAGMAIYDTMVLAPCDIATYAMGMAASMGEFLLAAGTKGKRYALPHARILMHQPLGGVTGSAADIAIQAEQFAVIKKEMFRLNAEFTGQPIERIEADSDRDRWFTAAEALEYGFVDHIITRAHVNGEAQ
UniProt P9WPC3, whole entry partner: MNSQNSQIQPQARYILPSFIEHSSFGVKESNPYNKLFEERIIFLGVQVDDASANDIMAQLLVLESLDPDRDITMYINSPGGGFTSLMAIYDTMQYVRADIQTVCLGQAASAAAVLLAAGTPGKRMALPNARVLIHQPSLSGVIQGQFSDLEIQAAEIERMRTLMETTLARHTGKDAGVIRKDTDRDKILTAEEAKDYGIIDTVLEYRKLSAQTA

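Protease assay of ClpP1P2, read by the AMC dye that it sets free. Target: ClpP1P2, Mycobacterium tuberculosis (UniProt P9WPC5 and UniProt P9WPC3). Compounds at 50 µM. Direction is inferred from only a few compounds that gave an IC50; most scored high, so higher reads as stronger inhibition. Most other retested compounds had strongly negative values. Size under these conditions: about 69,000 compounds, about 10 of them at 50% or above in at least one test.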

Values are the deposited “Percent Effect”, in %.
How 0% and 100% were set is not recorded. Most values in the screen are low, and negative values occur.
The compounds are a random part of those screened.

Result for CC(=O)N1CC(=O)N(c2ccccc2)CC12CCN(CC1CC1)C2 (centres undefined) was -0.7778%.
Result for CS(=O)(=O)c1ccccc1NCc1ccc(Cn2ccnc2)cc1 was -15.07%.
Result for COCCN1CCC2(C1)CN(c1ncccn1)C2 was 7.283%.
Result for O=C(NCCc1cccs1)NC1CCN(c2ncccn2)CC1 was 2.322%.
Result for Cc1nn(C)c(C)c1C1CCCN1Cc1nc(-c2ccco2)oc1C (centres undefined) was 15.61%.
Result for Cc1ccnc(C2CCN(S(=O)(=O)c3cn(C)cn3)CC2)n1 was 1.803%.
Result for O=C(NCc1nc(C2CCCCC2)no1)C1CC(=O)N(C2CC2)C1 (centres undefined) was -7.769%.
Result for CNCC[C@H]1CC(C)(C)Oc2ccc(OCC3CC3)cc21 was 14.47%.
Result for CS(=O)(=O)CC1(CNc2c(C#N)cnc3ccc(Cl)cc23)CC1 was -4.04%.
Result for CCC(C)c1ccc(NC(=O)C2CCN(C(=O)N(C)C)CC2)cc1 (centres undefined) was -14.81%.
Result for O=C(c1ccco1)N1C[C@H]2CN(Cc3cccc(F)c3)C(=O)[C@H]2C1 was -10.93%.
Result for CC(c1cccc(-c2cn(Cc3ccoc3)nn2)c1)N(C)C (centres undefined) was 2.074%.
Result for Cc1nc(COC[C@@H]2CC[C@H]3[C@H](CCN3c3ccccn3)O2)cs1 was -2.058%.
Result for Cc1c[nH]nc1C1CCCN1Cc1ccncc1 (centres undefined) was -21.47%.
Result for COCc1ccc(C(=O)N2CCCN(Cc3ccc(F)cc3)CC2)s1 was -1.379%.
Result for CCN1CCC(NC(=O)CNC(C)Cn2cccn2)CC1 (centres undefined) was 14.69%.
Result for CN1CCOC(CNC(=O)C2(c3ccccc3)CCC2)C1 (centres undefined) was -10.83%.
Result for O=C(c1nn[nH]c1Nc1cccc(Cl)c1)N1CCSCC1 was -7.954%.
Result for CS(=O)(=O)CCSc1n[nH]c(-c2ccc3c(c2)CCC3)n1 was -4.51%.
Result for Cc1nc(CN2CCCC(N(C)Cc3cnc(C)s3)C2)no1 (centres undefined) was -0.2692%.
Result for CC1(C)[C@H]2CC=C(CN3CCCn4nc(C(=O)NCCO)cc4C3)[C@@H]1C2 was -8.221%.
Result for CC(C)CN1CCN(C(=O)c2ccncc2F)Cc2cccnc21 was -0.1178%.
Result for CS(=O)(=O)NC1CCc2c(ccc(=O)n2CC2CC2)C1 (centres undefined) was 10.87%.
Result for CN(C)c1cc(C2CCCN2Cc2ccccc2OCC(=O)O)ccn1 (centres undefined) was -6.165%.
Result for CNc1nc(C)c(C(=O)N2CCCCC2CCc2ccc(O)cc2)s1 (centres undefined) was 4.682%.
Result for COCCNC(=O)[C@H]1CC[C@@H]2[C@@H](CCN2S(C)(=O)=O)O1 was -1.855%.
Result for O=C(CCc1c[nH]cn1)N1CC[C@@H](c2ccc3ccccc3c2)[C@H](O)C1 was 4.245%.
Result for COCCCN(Cc1ccccn1)S(=O)(=O)N(C)C was 17.31%.
Result for Cc1ncsc1C(=O)NCCSCc1cccs1 was -1.664%.
Result for CCOCCCn1c(NC(=O)c2scnc2C)nc2ccccc21 was 7.921%.
Result for CC(C)c1nn(C)c(N(C)C)c1CNCc1cccc(CN(C)C)c1 was -5.677%.
Result for O=C(c1ccc(F)cc1F)N1C[C@H]2CC[C@@H]1CN(Cc1ccccc1)C2 was -10.89%.
Result for CNS(=O)(=O)c1ccc(CNC(=O)C2CCCN(C)C2)cc1 (centres undefined) was 6.199%.
Result for O=C(C1CCCC1)N1CC2(CCN(C3COC3)C2)OCc2ccccc21 (centres undefined) was -4.791%.
Result for COCC(O)CN1CCC(=O)N(CC(=O)C(C)(C)C)Cc2ccccc21 (centres undefined) was -1.788%.
Result for Cn1cc(-c2cnc(N3CCOCC3)nc2)cc1C(=O)NCCO was 1.961%.
Result for CN1CC2(CCCN(C(=O)c3cnc4ccc(F)cc4c3O)C2)OC1=O (centres undefined) was 11.51%.
Result for Cn1ccnc(Nc2ccc3c(c2)CCN3C(=O)c2ccoc2)c1=O was 1.435%.
Result for Cc1cccc(CNc2cc(C3CCCNC3)ccn2)n1 (centres undefined) was -0.922%.
Result for O=C(O)c1ccnc2c(Br)cccc12 was -3.113%.
Result for COC(=O)N1CCCN(C(=O)c2cccc3cccnc23)CC1 was -6.561%.
Result for Cc1ccc(C)c(-n2ncc(C(=O)NCC3COC(C)(C)O3)c2N)c1 (centres undefined) was 7.257%.
Result for CN(C)CCOCC1CN(Cc2ccccn2)Cc2nnn(C)c21 (centres undefined) was -7.69%.
Result for Cc1cccc(NC(=O)c2cnc(C3CCCNC3)cn2)n1 (centres undefined) was 14.58%.
Result for Cn1cnnc1-c1cncc(NCc2cccc3c2OCO3)c1 was -6.427%.
Result for O=C(CC1CCCC1)NCCn1ccc(-c2ccncc2)n1 was -16.06%.
Result for COc1ccc(C2CCCN2C(=O)c2cc(C(C)C)on2)cc1 (centres undefined) was -6.204%.
Result for Cc1ccc(CN2CCN(c3ncnc4[nH]cnc34)CC2CCO)cc1 (centres undefined) was 1.984%.
Result for O=C(NCCOc1ccc2c(c1)OCO2)C1CC(=O)N(C2CC2)C1 (centres undefined) was -22.66%.
Result for COc1ccc2c(c1)C(C(=O)NCCN1CCOC1=O)CC(=O)N2 (centres undefined) was 0.4716%.
Result for Cc1cc(CN2CC[C@H]3C(=O)N(c4cccnc4)CCO[C@H]3C2)no1 was -2.231%.
Result for CC(=O)Nc1ccsc1C(=O)N1CC[C@@H]2CC[C@H](C1)N2C was 4.067%.
Result for CCN1CCC2(COCc3cnc(NCC4CC4)nc32)C1 (centres undefined) was -8.321%.
Result for Cc1ccc(F)cc1NS(=O)(=O)c1cc2c(c(C(=O)O)c1)OCCO2 was -36.43%.
Result for Cn1cc(CN2CCCN(C(=O)c3cc(Cl)cn3C)CC2)cn1 was 29.28%.
Result for c1ccc(CN2CCC3(COCc4cnc(NCC5CC5)nc43)C2)cc1 (centres undefined) was -9.307%.

Some entries from above, unchanged:

With CCOCCCn1c(NC(=O)c2scnc2C)nc2ccccc21 the screen gave 7.921%.
With Cn1ccnc(Nc2ccc3c(c2)CCN3C(=O)c2ccoc2)c1=O the screen gave 1.435%.
With O=C(c1ccc(F)cc1F)N1C[C@H]2CC[C@@H]1CN(Cc1ccccc1)C2 the screen gave -10.89%.
With CC1(C)[C@H]2CC=C(CN3CCCn4nc(C(=O)NCCO)cc4C3)[C@@H]1C2 the screen gave -8.221%.
With O=C(c1ccco1)N1C[C@H]2CN(Cc3cccc(F)c3)C(=O)[C@H]2C1 the screen gave -10.93%.
With COCCCN(Cc1ccccn1)S(=O)(=O)N(C)C the screen gave 17.31%.

Source: ChEMBL document CHEMBL3988442, “University of Dundee, Small-Polar-MMV Screening Library” (2021).